These are yes or no findings as the source states them, for the method shown.
Biological target: T1, Gerbich-type glycophorin C, endogenous, of Gerbich-negative human erythrocytes (human (endogenous in erythrocytes)) (UniProt P04921)
T1 sequence: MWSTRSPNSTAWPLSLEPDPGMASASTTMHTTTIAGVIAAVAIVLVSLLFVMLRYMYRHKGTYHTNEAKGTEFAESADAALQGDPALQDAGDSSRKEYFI
Test: flow cytometry on cells; Region II (4 ug) incubated with 3x10^5 native, trypsin- or neuraminidase-treated human normal or Gerbich-negative erythrocytes in PBS pH 7.4, 2 h at 4°C; detected with rabbit anti-Region II serum and FITC anti-rabbit Ig; only the binder purified

## recombinant, baculovirus-expressed Region II of P. falciparum EBA-140 ligand (domain or fragment)
  binding: no binding (tested: 4 ug)

From PMC4294638
